# Library screen at single concentrations

The chains behind the UniProt entries cited, without tags or fusion partners. Residues count along the entry.
UniProt P9WNZ1, whole entry: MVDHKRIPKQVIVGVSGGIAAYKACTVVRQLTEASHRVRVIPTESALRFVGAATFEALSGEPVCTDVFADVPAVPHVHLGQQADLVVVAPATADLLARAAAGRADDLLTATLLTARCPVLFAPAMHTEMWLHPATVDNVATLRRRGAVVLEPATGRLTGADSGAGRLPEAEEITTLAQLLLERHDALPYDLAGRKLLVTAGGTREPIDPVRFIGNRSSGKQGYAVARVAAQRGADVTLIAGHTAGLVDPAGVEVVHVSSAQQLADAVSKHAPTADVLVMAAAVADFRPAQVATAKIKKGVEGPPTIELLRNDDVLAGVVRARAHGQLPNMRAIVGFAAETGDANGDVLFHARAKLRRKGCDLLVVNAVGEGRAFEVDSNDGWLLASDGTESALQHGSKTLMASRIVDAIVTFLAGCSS
UniProt Q8IDJ8, 1-583: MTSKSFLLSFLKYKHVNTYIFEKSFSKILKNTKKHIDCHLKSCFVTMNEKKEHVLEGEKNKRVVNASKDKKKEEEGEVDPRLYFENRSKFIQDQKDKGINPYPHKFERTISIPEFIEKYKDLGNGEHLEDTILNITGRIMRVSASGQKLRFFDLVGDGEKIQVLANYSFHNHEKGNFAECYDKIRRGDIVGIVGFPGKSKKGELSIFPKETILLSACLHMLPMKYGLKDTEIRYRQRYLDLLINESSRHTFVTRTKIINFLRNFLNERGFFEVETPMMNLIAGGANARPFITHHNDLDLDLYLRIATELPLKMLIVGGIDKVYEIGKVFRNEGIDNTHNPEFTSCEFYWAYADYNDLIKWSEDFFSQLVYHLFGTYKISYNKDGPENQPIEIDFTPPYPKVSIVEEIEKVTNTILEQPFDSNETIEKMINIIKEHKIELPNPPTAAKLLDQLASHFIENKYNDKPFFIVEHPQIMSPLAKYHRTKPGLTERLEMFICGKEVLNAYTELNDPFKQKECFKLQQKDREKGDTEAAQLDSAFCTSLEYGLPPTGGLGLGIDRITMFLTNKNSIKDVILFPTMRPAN
UniProt P9WFT3, whole entry: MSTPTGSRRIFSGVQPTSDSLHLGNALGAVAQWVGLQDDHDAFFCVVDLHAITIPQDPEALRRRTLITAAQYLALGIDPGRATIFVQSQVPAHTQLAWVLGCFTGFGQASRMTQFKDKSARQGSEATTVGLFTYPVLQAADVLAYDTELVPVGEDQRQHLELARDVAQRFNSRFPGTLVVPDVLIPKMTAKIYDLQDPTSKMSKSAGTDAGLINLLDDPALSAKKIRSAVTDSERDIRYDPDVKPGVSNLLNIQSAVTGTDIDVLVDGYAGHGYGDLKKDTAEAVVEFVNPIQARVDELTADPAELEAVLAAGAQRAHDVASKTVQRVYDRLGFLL
UniProt I6X8D2, whole entry: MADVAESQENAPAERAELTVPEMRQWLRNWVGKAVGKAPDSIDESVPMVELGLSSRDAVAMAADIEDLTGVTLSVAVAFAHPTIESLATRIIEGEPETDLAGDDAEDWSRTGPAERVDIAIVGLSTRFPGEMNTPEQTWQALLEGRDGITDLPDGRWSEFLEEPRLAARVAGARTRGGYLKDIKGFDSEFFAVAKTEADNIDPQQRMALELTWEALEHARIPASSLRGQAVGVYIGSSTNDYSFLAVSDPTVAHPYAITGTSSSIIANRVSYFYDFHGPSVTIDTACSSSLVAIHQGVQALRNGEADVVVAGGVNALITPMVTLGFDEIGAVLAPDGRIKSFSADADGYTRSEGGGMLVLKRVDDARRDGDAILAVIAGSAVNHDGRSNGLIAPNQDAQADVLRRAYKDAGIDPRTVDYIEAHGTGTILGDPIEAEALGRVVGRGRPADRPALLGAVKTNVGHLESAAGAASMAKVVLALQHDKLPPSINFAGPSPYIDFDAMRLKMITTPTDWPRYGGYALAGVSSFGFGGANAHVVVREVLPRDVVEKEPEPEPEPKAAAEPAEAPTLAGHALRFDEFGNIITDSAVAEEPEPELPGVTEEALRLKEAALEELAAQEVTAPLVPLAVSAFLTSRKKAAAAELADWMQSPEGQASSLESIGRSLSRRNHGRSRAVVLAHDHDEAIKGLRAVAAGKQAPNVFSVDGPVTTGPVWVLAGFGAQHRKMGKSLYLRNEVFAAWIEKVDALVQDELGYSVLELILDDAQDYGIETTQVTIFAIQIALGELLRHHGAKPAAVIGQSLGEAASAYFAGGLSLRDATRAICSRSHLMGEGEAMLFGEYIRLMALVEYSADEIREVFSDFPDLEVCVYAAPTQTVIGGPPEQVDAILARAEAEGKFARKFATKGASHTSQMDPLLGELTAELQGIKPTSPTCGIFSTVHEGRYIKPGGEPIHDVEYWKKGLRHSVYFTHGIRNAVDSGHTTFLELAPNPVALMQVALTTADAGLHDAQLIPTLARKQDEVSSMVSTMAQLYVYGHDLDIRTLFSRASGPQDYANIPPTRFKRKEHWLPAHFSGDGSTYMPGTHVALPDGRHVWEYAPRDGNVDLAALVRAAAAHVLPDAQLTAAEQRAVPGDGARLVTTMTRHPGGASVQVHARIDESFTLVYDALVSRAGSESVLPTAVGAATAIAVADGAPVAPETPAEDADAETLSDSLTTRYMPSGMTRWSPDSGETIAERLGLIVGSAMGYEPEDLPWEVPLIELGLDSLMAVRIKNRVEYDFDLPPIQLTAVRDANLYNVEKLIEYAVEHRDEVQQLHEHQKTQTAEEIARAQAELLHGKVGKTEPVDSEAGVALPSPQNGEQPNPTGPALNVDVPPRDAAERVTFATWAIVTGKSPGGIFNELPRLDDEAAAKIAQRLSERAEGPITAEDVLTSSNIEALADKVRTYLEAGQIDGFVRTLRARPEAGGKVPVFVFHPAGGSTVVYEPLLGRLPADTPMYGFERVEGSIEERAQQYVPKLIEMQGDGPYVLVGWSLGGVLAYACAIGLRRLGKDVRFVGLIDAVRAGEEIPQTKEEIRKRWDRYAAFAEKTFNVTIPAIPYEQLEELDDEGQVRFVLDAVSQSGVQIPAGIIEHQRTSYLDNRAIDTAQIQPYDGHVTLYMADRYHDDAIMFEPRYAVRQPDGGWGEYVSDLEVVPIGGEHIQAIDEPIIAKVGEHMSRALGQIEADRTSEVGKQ

Each number is a percent effect as filed.
The record does not define 0% and 100%; most values in the screen are far below 50% and negative numbers occur (in some assays of this library far below -100).
Compounds were drawn at random from those tested, without regard to their results.
A dash means the value is not listed here; it may have been measured.

CoaBC: 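Enzyme assay of CoaBC with a phosphate dye (Biomol Green) read at 650 nm. Target: Coenzyme A biosynthesis protein CoaBC, Mycobacterium tuberculosis (UniProt P9WNZ1). Tested at 30 µM. Direction is inferred from only a few compounds that gave an IC50; most scored high, so higher reads as stronger inhibition. Most strong results did not repeat in a second test. About 67,000 compounds were tested under these conditions; 0.06% (about 40) showed 50% or more at least once.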
PfKRS1: 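Lysine-tRNA ligase, Plasmodium falciparum 3D7 (UniProt Q8IDJ8). Enzyme assay of the cytosolic lysyl-tRNA synthetase in 384-well plates, read by luminescence. Concentration: 30 µM. Higher reads as stronger inhibition, judged from the few compounds that gave an IC50. Size under these conditions: about 69,000 compounds, about 49 of them at 50% or above in at least one test.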
Toxoplasma: 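Assay of Toxoplasma gondii numbers, read through their beta-galactosidase reporter with a colour substrate. Tested at 10 µM. The record gives no direction; the compounds picked for IC50 retests had high values, so higher reads as fewer parasites. About 67,000 compounds were tested under these conditions; 0.38% (about 260) showed 50% or more at least once.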
MtTrpRS: 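Enzyme assay of tryptophanyl-tRNA synthetase; the read-out is not stated. Target: Tryptophan-tRNA ligase, Mycobacterium tuberculosis (UniProt P9WFT3). Tested at 10 µM. Direction is not recorded; retested compounds ran higher, which suggests that high means inhibition. Of about 65,000 compounds tested this way, about 64 (0.098%) reached 50% or more in at least one test.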
Pks13 thioesterase: 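Enzyme assay of the thioesterase domain of polyketide synthase 13; the read-out is not stated. Target: Polyketide synthase Pks13, Mycobacterium tuberculosis (UniProt I6X8D2). Tested at 30 µM. The record gives no direction; the compounds picked for IC50 retests had high values, so higher reads as stronger inhibition. Of about 67,000 compounds tested this way, about 300 (0.46%) reached 50% or more in at least one test.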

Compound,CoaBC,PfKRS1,Toxoplasma,MtTrpRS,Pks13 thioesterase
[H][C@@]12CCN(S(C)(=O)=O)C[C@]1(C(=O)NCC1CC1)CCO2,-,-,-24.31%,-,-
CCC(CC)C(=O)N(C)CC(=O)Nc1ccc(Br)cn1,3.394%,1.133%,-13.19%,1.132%,-6.397%
CC(=O)N1CCN(C(=O)c2sccc2Br)CC1,13.1%,1.758%,-1.983%,9.784%,-6.415%
CCCNC(=O)CSCc1ccc(S(=O)(=O)N(C)C)o1,-14.29%,1.878%,-4.789%,-2.744%,-31.33%
CC(C)NC(=O)[C@H]1CCS(=O)(=O)[C@@H]2CN(c3ncc(F)cn3)C[C@H]12,-5.447%,5.315%,-,-2.581%,-18.84%
COc1ccc(NC(=O)CNc2cccc3c2CCCC3)c(OC)c1,2.203%,-3.012%,-0.6911%,0%,34.31%
Cn1cc(CN2CCC[C@]3(C[C@@H](Oc4ncccc4F)CO3)C2)cn1.O=C(O)C(F)(F)F.O=C(O)C(F)(F)F,-,-,-0.8262%,-,-
CN1CCC/C1=N\S(=O)(=O)c1ccc(NC(=O)c2ccc(Cl)cc2)cc1,-5.362%,3.685%,14.19%,1.306%,-13.17%
[H][C@@]12CCN(C[C@@H]1CN(CC)CC)[C@@H](CNC(=O)c1ccco1)C2,-,-,-0.748%,-,-
Cn1ncc2c(=O)[nH]c(N3CCCC3c3cccs3)nc21 (stereo not drawn),15.48%,3.584%,-0.6967%,3.177%,-13.6%
FC(F)(F)c1ccccc1CCC1CCCN(Cc2cscn2)C1 (stereo not drawn),-16.2%,1.791%,7.18%,-1.546%,-5.176%
CCN(Cc1c(C)nn(CC)c1C)S(=O)(=O)c1cn(C)nc1C,1.531%,4.796%,-6.041%,5.729%,0.7527%
CC(C)Cc1cc(NC(=O)c2ccc(=O)[nH]n2)n(C)n1,2.41%,-3.258%,1.8%,1.199%,-6.906%
COCc1cc(CNC(=O)c2c(O)cccc2O)n[nH]1,8.614%,4.057%,-3.394%,-0.6255%,-4.577%
COC1COC2(CCN(C(=O)c3ccccc3F)CC2)C1 (stereo not drawn),0.495%,2.501%,3.543%,-,4.066%
C=C/C=c1\c(=C/C)oc2c(NCc3ccccc3)ncnc12,-0.9639%,6.544%,26.91%,-0.9709%,-1.559%
Cl.Cl.O=C(CN1CCN(CC(O)C2CC2)CC1)NCc1ccccc1 (stereo not drawn),-,-,6.289%,-,-
CCc1c(C)nc2ccccc2c1N1CCC(O)CC1,2.893%,3.896%,7.019%,-2.387%,-24.1%
CCCn1cc(-c2cc(C(=O)N(C)C)c3ccc(OC)cc3n2)cn1,2.913%,5.702%,1.019%,2.12%,34.56%
Cc1cccc(CO[C@@H]2C[C@H]3CN(c4ncccn4)CCN3C2)n1,-,13.7%,-,2.913%,-22.8%
CC1c2ncc(COc3cccnc3)n2CCN1Cc1cnn(C)c1 (stereo not drawn),8.292%,2.22%,-,-,7.604%
O=C(C1CCCO1)N1CCC2(CC1)COCCN(Cc1ccncc1)C2 (stereo not drawn),2.349%,3.214%,-,-4.928%,-1.217%
CC(C)C1CCCN1C(=O)Nc1ccc(=O)n(C)c1 (stereo not drawn),9.742%,80.98%,-3.239%,10.81%,1.552%
Cc1cccc2c(=O)c(C(=O)N3CCCC4(CN(C)C(=O)O4)C3)c[nH]c12 (stereo not drawn),4.234%,4.17%,-17.49%,-0.2018%,-7.182%
CCS(=O)(=O)N1CCC2(COCc3cnc(N4CCOCC4)nc32)C1 (stereo not drawn),1.003%,5.654%,-16.97%,0.8299%,-1.025%
CS(=O)(=O)N1CCC(Nc2ccc(C#N)c(C(F)(F)F)c2)CC1,3.672%,4.293%,4.372%,0%,-24.33%
Cc1noc(C)c1CN1C[C@H](OCC(=O)N(C)C)[C@H]2COC[C@H]21,-7.128%,-5.042%,-,-2.344%,-21.99%
O=C(c1ccc(C(F)(F)F)nc1)N1CCCC(n2cncn2)C1 (stereo not drawn),2.85%,2.04%,-3.083%,0.8166%,-
O=C(Nc1ccccc1)[C@H]1O[C@H](CCN2CCCCC2)CC[C@@H]1O,11.59%,5.077%,-0.6197%,-0.5339%,21.97%
CC(C)CCN(C(=O)CCn1cc(S(N)(=O)=O)cn1)C1CC1,6.696%,3.951%,-4.957%,-6.295%,-5.02%

Once more, the final 2:

| Compound | CoaBC | PfKRS1 | Toxoplasma | MtTrpRS | Pks13 thioesterase |
|---|---|---|---|---|---|
| `O=C(Nc1ccccc1)[C@H]1O[C@H](CCN2CCCCC2)CC[C@@H]1O` | 11.59% | 5.077% | -0.6197% | -0.5339% | 21.97% |
| `CC(C)CCN(C(=O)CCn1cc(S(N)(=O)=O)cn1)C1CC1` | 6.696% | 3.951% | -4.957% | -6.295% | -5.02% |

Measurements from “University of Dundee, Small-Polar-MMV Screening Library” (2021), ChEMBL document CHEMBL3988442.